This is one part of the list.

Protein sequences, listed by entry. Tags and fused reporters are not part of them. Lines headed by an entry give the natural chain unless they say otherwise; changes in a name come on top.
UniProt O95232: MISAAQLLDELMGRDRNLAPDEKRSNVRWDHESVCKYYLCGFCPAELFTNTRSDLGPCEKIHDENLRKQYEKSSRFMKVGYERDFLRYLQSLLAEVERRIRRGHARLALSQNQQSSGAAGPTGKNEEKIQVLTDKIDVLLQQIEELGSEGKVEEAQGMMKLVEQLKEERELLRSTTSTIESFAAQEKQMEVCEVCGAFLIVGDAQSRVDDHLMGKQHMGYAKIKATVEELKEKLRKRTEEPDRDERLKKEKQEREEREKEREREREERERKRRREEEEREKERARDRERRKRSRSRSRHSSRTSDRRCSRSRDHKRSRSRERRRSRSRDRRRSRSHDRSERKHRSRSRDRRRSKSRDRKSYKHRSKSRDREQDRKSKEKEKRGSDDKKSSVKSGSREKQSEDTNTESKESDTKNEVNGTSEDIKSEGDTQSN
UniProt Q8IVH8: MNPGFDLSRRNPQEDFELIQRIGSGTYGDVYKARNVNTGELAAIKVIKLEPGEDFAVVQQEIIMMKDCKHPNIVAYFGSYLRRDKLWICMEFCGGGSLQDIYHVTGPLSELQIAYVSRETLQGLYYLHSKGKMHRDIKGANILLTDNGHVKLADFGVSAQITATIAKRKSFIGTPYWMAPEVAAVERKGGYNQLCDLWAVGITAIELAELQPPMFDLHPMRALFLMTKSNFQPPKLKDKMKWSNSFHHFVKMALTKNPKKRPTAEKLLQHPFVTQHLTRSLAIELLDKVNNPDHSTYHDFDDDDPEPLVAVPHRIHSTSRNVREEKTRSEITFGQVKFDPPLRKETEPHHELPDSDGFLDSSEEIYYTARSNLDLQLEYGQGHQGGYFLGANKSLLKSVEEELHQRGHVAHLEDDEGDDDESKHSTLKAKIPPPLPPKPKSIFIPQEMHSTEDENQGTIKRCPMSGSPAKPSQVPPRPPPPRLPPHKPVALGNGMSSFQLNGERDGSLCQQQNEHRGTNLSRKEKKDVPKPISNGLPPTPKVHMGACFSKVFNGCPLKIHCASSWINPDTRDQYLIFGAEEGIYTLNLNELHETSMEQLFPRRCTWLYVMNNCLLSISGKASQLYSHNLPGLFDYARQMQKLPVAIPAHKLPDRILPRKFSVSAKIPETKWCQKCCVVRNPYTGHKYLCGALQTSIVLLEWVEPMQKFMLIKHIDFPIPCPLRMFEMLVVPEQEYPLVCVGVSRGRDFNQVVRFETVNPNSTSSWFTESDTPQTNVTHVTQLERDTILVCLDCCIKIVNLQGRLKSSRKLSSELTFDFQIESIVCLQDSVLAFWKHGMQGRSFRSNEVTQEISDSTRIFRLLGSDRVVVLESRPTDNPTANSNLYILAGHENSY
UniProt Q8WV07: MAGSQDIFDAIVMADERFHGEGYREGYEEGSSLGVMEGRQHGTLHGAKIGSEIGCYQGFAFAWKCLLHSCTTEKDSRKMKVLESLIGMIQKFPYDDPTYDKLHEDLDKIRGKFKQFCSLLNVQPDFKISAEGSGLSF
UniProt Q12851: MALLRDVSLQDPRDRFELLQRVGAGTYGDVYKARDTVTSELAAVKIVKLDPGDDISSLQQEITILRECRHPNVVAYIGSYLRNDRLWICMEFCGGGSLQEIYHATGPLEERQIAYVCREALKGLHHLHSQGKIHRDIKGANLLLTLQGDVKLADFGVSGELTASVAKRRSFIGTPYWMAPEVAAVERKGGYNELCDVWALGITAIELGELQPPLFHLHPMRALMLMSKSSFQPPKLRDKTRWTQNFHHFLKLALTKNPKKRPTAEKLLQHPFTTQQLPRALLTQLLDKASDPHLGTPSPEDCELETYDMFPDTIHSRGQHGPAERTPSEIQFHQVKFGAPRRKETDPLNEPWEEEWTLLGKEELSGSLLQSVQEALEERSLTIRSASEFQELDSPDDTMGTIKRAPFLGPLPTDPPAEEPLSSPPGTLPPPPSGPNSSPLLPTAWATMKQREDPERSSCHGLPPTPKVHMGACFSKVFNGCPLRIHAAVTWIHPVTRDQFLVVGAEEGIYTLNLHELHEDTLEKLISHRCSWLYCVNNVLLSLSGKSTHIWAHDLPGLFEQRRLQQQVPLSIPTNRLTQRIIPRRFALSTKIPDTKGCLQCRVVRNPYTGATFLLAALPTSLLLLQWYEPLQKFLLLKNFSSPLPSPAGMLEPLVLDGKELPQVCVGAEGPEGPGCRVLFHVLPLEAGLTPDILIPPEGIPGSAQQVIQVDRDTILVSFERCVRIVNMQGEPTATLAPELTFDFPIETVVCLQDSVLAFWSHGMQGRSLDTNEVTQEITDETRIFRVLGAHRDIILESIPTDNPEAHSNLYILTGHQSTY
UniProt Q6P0Q8: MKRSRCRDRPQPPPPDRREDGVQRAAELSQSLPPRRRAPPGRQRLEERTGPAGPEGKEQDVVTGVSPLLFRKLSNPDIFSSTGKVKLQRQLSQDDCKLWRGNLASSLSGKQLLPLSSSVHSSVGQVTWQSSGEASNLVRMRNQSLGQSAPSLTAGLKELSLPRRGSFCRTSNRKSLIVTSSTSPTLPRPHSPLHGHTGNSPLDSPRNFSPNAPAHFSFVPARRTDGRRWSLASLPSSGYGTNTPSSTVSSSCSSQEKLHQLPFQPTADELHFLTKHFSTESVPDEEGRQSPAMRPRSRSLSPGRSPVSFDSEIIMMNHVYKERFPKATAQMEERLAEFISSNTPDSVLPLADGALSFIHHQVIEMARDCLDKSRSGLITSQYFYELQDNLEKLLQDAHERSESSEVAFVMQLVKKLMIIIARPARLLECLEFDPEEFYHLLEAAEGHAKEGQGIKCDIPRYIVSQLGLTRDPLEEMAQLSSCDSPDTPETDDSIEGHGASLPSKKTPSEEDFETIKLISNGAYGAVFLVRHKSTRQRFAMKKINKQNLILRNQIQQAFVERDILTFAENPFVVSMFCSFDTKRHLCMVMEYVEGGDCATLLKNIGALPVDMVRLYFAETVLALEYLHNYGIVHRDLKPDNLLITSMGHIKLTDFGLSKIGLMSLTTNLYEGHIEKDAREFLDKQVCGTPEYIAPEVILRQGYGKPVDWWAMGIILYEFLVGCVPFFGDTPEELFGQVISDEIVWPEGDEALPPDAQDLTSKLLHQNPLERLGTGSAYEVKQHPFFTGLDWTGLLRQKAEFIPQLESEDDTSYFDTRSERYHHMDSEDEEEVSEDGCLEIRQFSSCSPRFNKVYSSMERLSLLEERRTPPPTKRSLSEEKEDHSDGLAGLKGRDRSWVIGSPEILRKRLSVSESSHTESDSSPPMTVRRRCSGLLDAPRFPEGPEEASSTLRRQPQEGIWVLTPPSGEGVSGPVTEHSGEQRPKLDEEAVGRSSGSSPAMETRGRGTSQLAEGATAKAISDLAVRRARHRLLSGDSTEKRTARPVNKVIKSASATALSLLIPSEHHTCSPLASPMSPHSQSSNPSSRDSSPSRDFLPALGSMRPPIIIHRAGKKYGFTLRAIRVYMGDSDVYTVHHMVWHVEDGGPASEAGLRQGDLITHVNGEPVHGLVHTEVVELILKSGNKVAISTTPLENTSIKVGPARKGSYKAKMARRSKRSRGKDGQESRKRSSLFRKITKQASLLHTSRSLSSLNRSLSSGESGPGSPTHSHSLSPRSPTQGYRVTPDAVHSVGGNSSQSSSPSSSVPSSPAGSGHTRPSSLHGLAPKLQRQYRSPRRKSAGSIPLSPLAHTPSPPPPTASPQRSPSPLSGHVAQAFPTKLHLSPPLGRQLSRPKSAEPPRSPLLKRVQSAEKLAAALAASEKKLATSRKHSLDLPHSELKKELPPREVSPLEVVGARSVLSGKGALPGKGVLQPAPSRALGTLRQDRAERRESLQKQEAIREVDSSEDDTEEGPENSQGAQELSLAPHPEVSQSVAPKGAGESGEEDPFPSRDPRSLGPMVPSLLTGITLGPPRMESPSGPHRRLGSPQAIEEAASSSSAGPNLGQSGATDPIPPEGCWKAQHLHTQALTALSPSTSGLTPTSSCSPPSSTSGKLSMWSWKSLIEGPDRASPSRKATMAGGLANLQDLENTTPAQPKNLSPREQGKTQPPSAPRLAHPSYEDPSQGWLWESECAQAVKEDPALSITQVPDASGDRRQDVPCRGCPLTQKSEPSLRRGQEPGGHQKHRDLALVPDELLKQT
UniProt Q9Y2E5: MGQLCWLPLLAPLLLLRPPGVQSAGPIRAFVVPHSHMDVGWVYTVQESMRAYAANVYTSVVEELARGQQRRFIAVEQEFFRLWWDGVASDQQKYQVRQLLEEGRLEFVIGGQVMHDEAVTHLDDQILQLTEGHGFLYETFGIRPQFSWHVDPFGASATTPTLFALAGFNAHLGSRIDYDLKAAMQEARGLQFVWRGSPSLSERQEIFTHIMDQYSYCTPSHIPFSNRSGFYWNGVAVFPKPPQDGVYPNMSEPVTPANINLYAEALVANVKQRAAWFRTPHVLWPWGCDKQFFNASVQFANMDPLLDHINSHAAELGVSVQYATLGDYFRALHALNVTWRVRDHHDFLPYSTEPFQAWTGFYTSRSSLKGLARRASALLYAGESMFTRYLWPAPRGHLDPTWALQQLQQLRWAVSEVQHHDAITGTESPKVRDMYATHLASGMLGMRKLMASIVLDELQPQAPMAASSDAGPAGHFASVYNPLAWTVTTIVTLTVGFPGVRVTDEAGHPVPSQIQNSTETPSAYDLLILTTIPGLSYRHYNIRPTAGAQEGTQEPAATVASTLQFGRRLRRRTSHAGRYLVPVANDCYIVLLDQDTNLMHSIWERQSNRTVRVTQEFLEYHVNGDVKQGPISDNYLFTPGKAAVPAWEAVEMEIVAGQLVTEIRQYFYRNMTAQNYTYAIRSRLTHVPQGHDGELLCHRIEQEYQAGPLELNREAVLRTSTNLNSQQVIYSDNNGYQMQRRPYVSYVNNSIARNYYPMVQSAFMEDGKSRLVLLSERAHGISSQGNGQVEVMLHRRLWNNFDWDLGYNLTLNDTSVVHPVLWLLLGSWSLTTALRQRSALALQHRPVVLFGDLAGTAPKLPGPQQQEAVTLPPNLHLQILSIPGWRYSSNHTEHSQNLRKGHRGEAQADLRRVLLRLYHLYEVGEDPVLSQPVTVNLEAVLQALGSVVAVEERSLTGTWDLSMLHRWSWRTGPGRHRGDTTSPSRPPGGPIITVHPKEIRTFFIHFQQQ
UniProt Q15759, whole entry, looked up: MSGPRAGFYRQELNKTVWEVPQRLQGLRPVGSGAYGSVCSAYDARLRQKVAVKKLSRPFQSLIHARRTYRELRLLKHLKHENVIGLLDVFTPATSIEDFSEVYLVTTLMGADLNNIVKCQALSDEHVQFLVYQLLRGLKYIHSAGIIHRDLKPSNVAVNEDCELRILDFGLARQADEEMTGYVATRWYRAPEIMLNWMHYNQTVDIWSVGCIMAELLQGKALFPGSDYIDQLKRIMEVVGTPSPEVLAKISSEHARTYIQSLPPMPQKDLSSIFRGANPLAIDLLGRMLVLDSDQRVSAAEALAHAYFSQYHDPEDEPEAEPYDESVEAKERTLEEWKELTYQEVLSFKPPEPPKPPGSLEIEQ
UniProt Q9Y5V3: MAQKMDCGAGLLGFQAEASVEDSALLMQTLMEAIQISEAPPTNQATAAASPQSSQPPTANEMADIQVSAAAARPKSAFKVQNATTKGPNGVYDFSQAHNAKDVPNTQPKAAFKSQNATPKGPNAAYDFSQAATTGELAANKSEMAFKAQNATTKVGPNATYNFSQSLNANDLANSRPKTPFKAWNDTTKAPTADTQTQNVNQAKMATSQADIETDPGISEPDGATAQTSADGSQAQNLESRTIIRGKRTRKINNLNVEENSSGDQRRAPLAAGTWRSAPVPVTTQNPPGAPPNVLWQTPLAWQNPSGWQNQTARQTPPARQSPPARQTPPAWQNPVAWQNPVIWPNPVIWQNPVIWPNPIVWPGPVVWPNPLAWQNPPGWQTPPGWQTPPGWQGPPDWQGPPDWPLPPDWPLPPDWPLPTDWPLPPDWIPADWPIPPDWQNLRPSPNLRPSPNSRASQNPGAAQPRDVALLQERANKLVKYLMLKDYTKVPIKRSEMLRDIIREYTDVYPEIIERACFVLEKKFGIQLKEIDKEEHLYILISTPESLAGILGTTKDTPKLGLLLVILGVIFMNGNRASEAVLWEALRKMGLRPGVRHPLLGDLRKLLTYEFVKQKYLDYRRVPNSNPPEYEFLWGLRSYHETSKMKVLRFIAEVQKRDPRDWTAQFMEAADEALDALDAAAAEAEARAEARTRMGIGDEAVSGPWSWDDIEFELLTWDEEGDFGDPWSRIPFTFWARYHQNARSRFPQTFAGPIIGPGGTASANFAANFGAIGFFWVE
UniProt Q9NQ48: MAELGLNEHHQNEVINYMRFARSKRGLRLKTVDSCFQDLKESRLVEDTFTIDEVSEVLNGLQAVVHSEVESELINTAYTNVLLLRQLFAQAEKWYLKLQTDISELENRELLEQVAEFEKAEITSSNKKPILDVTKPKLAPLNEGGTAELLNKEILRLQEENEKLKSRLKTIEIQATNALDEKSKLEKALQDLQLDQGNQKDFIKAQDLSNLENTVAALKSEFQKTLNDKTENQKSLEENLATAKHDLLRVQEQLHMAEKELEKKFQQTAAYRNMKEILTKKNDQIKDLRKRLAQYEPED

Compound in the assay: CN1CCN(c2nc(C3=C(c4c[nH]c5ccccc45)C(=O)NC3=O)c3ccccc3n2)CC1 [sotrastaurin]
As to the kind of experiment: log2 fold change, soluble protein after heating vs DMSO (PISA); higher = thermal stabilisation; K562 lysate, 10 uM; active = over 0.2 and 3.5 SD of the protein, either way, in both replicates (recomputed). The procedure, abridged: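 The values are log-two fold changes in thermal stability compared with solvent controls and come from duplicates. They were obtained by TMTpro 16plex LC-MS/MS, with channel sums equalised, on the supernatant after 21,000xg for 90 min. That supernatant came from crude K562 extract at 1 mg/mL protein treated with 10 μM compound for 30 min, heated for 3 min across 48°C-58°C, pooled and brought to 0.5% NP-40 at 4°C.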
With LUC7L3 (UniProt O95232), the log2 fold change was inactive: 0.051. In the case of MAP3K5 (UniProt Q99683) it was inactive: -0.041. To MACF1, A0A0A6YYJ5 belongs inactive: -0.006; to MAP4K3 (UniProt Q8IVH8), inactive: -0.079; to LTO1 (UniProt Q8WV07), inactive: -0.016. As for MANEA (UniProt Q5SRI9), the log2 fold change is inactive: -0.019.

Consider MAPRE3 isoform 2 (UniProt Q9UPY8), for which the log2 fold change is inactive: 0.118. As for LTBP4 (UniProt Q8N2S1), the log2 fold change was inactive: 0.034.

Turning to MAP4K2 (UniProt Q12851), the log2 fold change was inactive: 0.053.

With MAST2 (UniProt Q6P0Q8), the log2 fold change was inactive: -0.024. To MAML1 (UniProt Q92585) belongs inactive: 0.029. In the case of MAP4 isoform 5 (UniProt P27816) it was inactive: -0.04. MAP7 (UniProt Q14244): the log2 fold change was inactive: -0.046. In the case of MARF1 (UniProt Q9Y4F3) it was inactive: 0; in that of MAN2B2 (UniProt Q9Y2E5), inactive: -0.024; in that of MAP4 (UniProt E7EVA0), inactive: -0.008.

For MARCHF6 (UniProt O60337), the log2 fold change was inactive: 0.034. On to MACF1 (UniProt E9PLY5), for which the log2 fold change was inactive: 0.018. To LZTS2 (UniProt Q9BRK4) belongs inactive: 0.026; to LTBR (UniProt P36941), inactive: 0.098; to MAP7D3 (UniProt Q8IWC1), inactive: -0.024. In the case of MAFG (UniProt O15525) it was inactive: -0.006; in that of MAPK11 (UniProt Q15759), inactive: -0.37; in that of MAGED1 isoform 2 (UniProt Q9Y5V3), inactive: 0.005. LZTFL1 (UniProt Q9NQ48): the log2 fold change is inactive: 0.026. With M6PR (UniProt P20645), the log2 fold change was inactive: 0.081. In the case of MAD2L1 (UniProt Q13257) it was inactive: 0.017.
